Assay results as given in patent US8114410B2, “Composition and methods for the inhibition of membrane fusion by paramyxoviruses” (priority 2001, dated 2012).
Some results were stated once for a whole list of compounds, not compound by compound.

Test system: NiV
Type: cell-based, Nipah virus

## CC[C@H](C)[C@H](NC(=O)[C@H](CCCCN)NC(=O)[C@H](CCC(N)=O)NC(=O)[C@H](C)NC(=O)[C@H](CCC(=O)O)NC(=O)[C@H](CCCCN)NC(=O)[C@@H](NC(=O)[C@H](Cc1ccc(O)cc1)NC(=O)[C@H](CC(=O)O)NC(=O)[C@H](CCCCN)NC(=O)[C@H](CO)NC(=O)[C@H](CCC(N)=O)NC(=O)[C@H](CCC(N)=O)NC(=O)[C@H](CC(C)C)NC(=O)[C@H](CO)NC(=O)[C@H](CCC(N)=O)NC(=O)[C@H](CC(N)=O)NC(=O)[C@H](CCSC)NC(=O)[C@H](CO)NC(=O)[C@H](CO)NC(=O)[C@@H](NC(=O)[C@H](CCC(N)=O)NC(=O)[C@H](CO)NC(=O)[C@H](CO)NC(=O)[C@@H](NC(=O)[C@H](CC(=O)O)NC(=O)[C@@H](NC(=O)[C@H](CCCCN)NC(=O)[C@H](CC(=O)O)NC(=O)[C@@H](NC(=O)[C@H](Cc1ccc(O)cc1)NC(=O)[C@@H](NC(=O)[C@@H]1CCCN1C(=O)[C@@H]1CCCN1)C(C)C)[C@@H](C)O)C(C)C)[C@@H](C)CC)[C@@H](C)CC)[C@@H](C)CC)C(=O)N[C@@H](CC(C)C)C(=O)N[C@@H](CC(=O)O)C(=O)N[C@H](C(=O)N[C@H](C(=O)N[C@@H](CC(N)=O)C(=O)N1CCC[C@H]1C(=O)N[C@@H](CO)C(=O)N[C@@H](CC(C)C)C(=O)O)C(C)C)[C@@H](C)O [HeV FC2]
  Number of nuclei in NiV-induced syncytia relative to control untreated syncytia: less than 30%
